From PubChem BioAssay AID504834 (National Center for Advancing Translational Sciences (NCATS), 2011)
Hit rate of the full screen: of about 320,000 compounds, about 22,000 (6.9%) were called active. Inconclusive results, whose numbers are uncertain, are shown with a selection of clear calls. Calls come from the whole dose curve; as a rule, active = well fitted inhibition curve with a large enough effect; inconclusive = small, poorly fitted or top-dose-only effect, or another doubt; inactive = no such curve, though single readings can be large or run the other way. Potencies of inconclusive entries are doubtful fits and often do not repeat.

assay: Primary qHTS for delayed death inhibitors of the malarial parasite plastid, 96 hour incubation; conditions: P. falciparum luciferase reporter growth; series mostly up to 28.7 µM; activity change, negative = inhibition: at the top concentration
How it was run: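 P. falciparum expressing integrated firefly luciferase grown in erythrocytes (2% hematocrit, 0.05% parasitemia final) with compounds for 96 hours at 37 C, 5% CO2. Growth inhibition read as loss of luminescence after adding luciferase detection reagent.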
% is set by controls: 0 for no effect and ±100 for the full control effect; potency is the fitted concentration of half-maximal effect.

Row | Compound | Potency | activity change, negative = inhibition
1 | CCN1C(=O)[C@H]2[C@@H](c3ccc(C)cc3)N3C(=O)N(c4ccc(C)cc4)C(=O)[C@@]3(C)[C@H]2C1=O | inconclusive: 3.7 µM [inhibitor, partial curve, poor fit] | –
2 | CC(C)C[C@H](NC(=O)C1CC(=O)N(c2ccc3c(c2)OCO3)C1)C(=O)NC1CCCC1 (stereo not given in full) | inconclusive: 16.5 µM [inhibitor, single point] | –
3 | COc1cccc(NC(=O)CN(C)C(=O)c2ccccc2-c2nc3ccccc3s2)c1 | inconclusive: 11.7 µM [inhibitor, single point] | –
4 | NC(=S)N/N=C/c1ccc(C23CC4CC(CC(C4)C2)C3)cc1 | inconclusive: 13.1 µM [inhibitor, single point] | –
5 | CCCCCCCCCCCCCCCC[N+](C)(C)CCN(Cc1ccc(OC)cc1)c1ncccn1 | active: 1.85 µM | –
6 | Cc1cccc(C)c1NC(=O)CSC(=O)c1sc2ccccc2c1Cl | – | inactive: 5.59%
7 | O=C(Nc1nc(-c2ccc(F)cc2)cs1)c1cnccn1 | – | inactive: 59.3%
8 | CCCn1c2ccccc2c2nnc(SCC(=O)Nc3nnc(CC(=O)OCC)s3)nc21 | inconclusive: 13.1 µM [inhibitor, partial curve, poor fit] | –
9 | CC1(C)O[C@@H]2[C@H](O1)[C@@H](COS(=O)(=O)O)O[C@H]2n1cnc2c(N)ncnc21 | – | inactive: 50.7%
10 | Cn1c(N)c(C(=O)COC(=O)CCc2ccccc2)c(=O)n(C)c1=O | – | inactive: -0.391%
11 | Cc1cc(-c2nn(-c3ccccc3)cc2/C=C2\SC(N)=NC2=O)ccc1OC(C)C | inconclusive: 1.65 µM [inhibitor, partial curve, poor fit] | –
12 | Cn1c2ccccc2c2c(C(=O)N3CCC4(CC3)OCCO4)cn(C3CCCCC3)c(=O)c21 | inconclusive: 13.1 µM [inhibitor, single point] | –
13 | O=C(CN1C(=O)NC2(CCCCCC2)C1=O)c1ccc(F)cc1 | – | inactive: 24.8%
14 | CCSc1nsc(NC(=O)Nc2ccc(F)cc2F)n1 | – | inactive: -18.8%
15 | CCOC(=O)N1CCN(C(=O)c2noc(C(C)C)c2[N+](=O)[O-])CC1 | inconclusive: 18.5 µM [inhibitor, single point] | –
16 | CN(Cc1ccc(F)cc1)C(=O)c1sccc1-c1ccccc1 | inconclusive: 13.1 µM [inhibitor, single point] | –
17 | CCOc1ccc(-c2cc(C(=O)NCCCN3CCOCC3)c3ccccc3n2)cc1 | inconclusive: 18.5 µM [inhibitor, single point] | –
18 | Cc1ccc(S(=O)(=O)N2CCOCC2)cc1NC(=O)COC(=O)Cc1cccs1 | inconclusive: 0.208 µM [inhibitor, partial curve, poor fit] | –
19 | CCCCOc1ccc(C(=O)Oc2cccnc2)cc1 | inconclusive: 16.5 µM [inhibitor, single point] | –
20 | O=C(CCc1c[nH]c2ccccc12)NCC(=O)Nc1ccc(F)c(F)c1F | – | inactive: 12.6%
21 | COC(=O)c1sc(NC(=O)C2CCCO2)c(C(=O)OC)c1C (stereo not given) | inconclusive: 1.47 µM [inhibitor, full curve] | –
22 | CC(=O)N1N=C(c2ccccc2)OC1c1cccnc1 (stereo not given) | – | inactive: 22.8%
23 | CCOC(=O)C1CCN(C(=O)c2ccc(OC)cc2OC)CC1 | active: 13.1 µM | –
24 | c1ccc(CCc2nc(-c3cccnc3)no2)cc1 | inconclusive: 8.28 µM [inhibitor, partial curve, poor fit] | –

Row | Compound | Potency | activity change, negative = inhibition
25 | O=C(Cn1cnc2c(cnn2-c2ccccc2)c1=O)Nc1cc(S(=O)(=O)N2CCOCC2)ccc1Cl | inconclusive: 10.4 µM [inhibitor, single point] | –
26 | O=C(NCCCN1CCN(c2ccccc2F)CC1)Nc1ccc(F)cc1 | inconclusive: 2.33 µM [inhibitor, full curve, poor fit] | –
27 | Cn1cnnc1SCc1ccc(C(=O)N=Nc2c(O)n(Cc3ccc(Cl)cc3)c3ccccc23)cc1 | active: 3.7 µM | –
28 | CSc1ccccc1OCc1cc(C(=O)N2CCc3c(Cl)cccc3C2)no1 | inconclusive: 4.65 µM [inhibitor, partial curve, poor fit] | –
29 | COc1ccc2nc(SCC(=O)NN)cc(C)c2c1 | inconclusive: 0.233 µM [inhibitor, full curve, poor fit] | –
30 | COc1cc2[nH]c(=O)c(C(=O)NCc3ccccc3Cl)c(O)c2cc1OC | inconclusive: 10.4 µM [inhibitor, partial curve, poor fit] | –
31 | O=C(NC1CC1)C1CCN(c2ncnc3c2sc2cccc(F)c23)CC1 | inconclusive: 9.28 µM [inhibitor, partial curve] | –
32 | Cc1cc(C)nc(Nc2n[nH]c(-c3ccccc3N)n2)n1 | – | inactive: 227%
33 | COc1ccc(Nc2nc(N(C)c3ccccc3)nc(N)c2[N+](=O)[O-])cc1 | – | inactive: 7.89%
34 | COc1ccc(OC)c(/C=C2\SC(=S)N(Cc3cccnc3)C2=O)c1 | active: 9.28 µM | –
35 | Cc1cccc(NC(=O)CSc2nc(N)cc(N)n2)c1 | inconclusive: 18.5 µM [inhibitor, partial curve, poor fit] | –
36 | COc1ccc2c(CC(=O)NC(Cc3ccc(Cl)cc3)C(=O)O)cc(=O)oc2c1C (stereo not given) | inconclusive: 14.7 µM [inhibitor, partial curve, poor fit] | –
37 | S=C(N/N=C/c1cccc2ccccc12)Nc1cccc(Cl)c1 | active: 2.94 µM | –
38 | Cc1ccc(NS(C)(=O)=O)c(C(=O)c2ccccc2)c1 | – | inactive: 44.3%
39 | O=C(Cc1ccc([N+](=O)[O-])cc1)NCc1ccc2c(c1)OCO2 | inconclusive: 16.5 µM [inhibitor, single point] | –
40 | O=C(Cn1cccn1)c1ccccc1 | – | inactive: -0.943%
41 | CC(C)CC(=O)Nc1ccccc1N1CCN(c2ccc(F)cc2)CC1 | – | inactive: -4.12%
42 | O=C(CNC(=O)c1cccs1)OCC(=O)c1ccc(Br)cc1 | – | inactive: 12.8%
43 | OC(CNC1CCCC1)COc1ccccc1Br (stereo not given) | – | inactive: -96.7%
44 | Cc1nc(SCC(=O)NC(C)(C#N)C2CC2)c2c(-c3cccs3)csc2n1 (stereo not given) | inconclusive: 10.4 µM [inhibitor, partial curve, poor fit] | –
45 | CN(C)/C=C/C(=O)c1ccc([N+](=O)[O-])c(CS(=O)(=O)c2ccccc2)c1 | – | inactive: -6.13%
46 | O=C(Nc1cc2c(cc1Br)OCCCO2)c1cccnc1 | – | inactive: -11.8%
47 | Cc1ccc(-c2cc(C(=O)Nc3ccc(S(=O)(=O)Nc4ncccn4)cc3)[nH]n2)c(O)c1C | active: 9.28 µM | –
48 | NC(=O)c1cc([N+](=O)[O-])ccc1NCCN1C(=O)c2ccccc2C1=O | – | inactive: -28.6%

Row | Compound | Potency | activity change, negative = inhibition
49 | CCCc1nnc(SCc2ccc(OCC)cc2)n1N | inconclusive: 10.4 µM [inhibitor, single point] | –
50 | O=C(Cn1c(=O)c2c(ncn2Cc2ccccc2)n(Cc2ccccc2)c1=O)NC1CC1 | inconclusive: 13.1 µM [inhibitor, partial curve, poor fit] | –
51 | CC1CCN(C(=O)Cn2nnc(-c3ccccc3)n2)CC1 | inconclusive: 20.8 µM [inhibitor, single point] | –
52 | CCc1nc(CN(C)C(=O)C2CCC(=O)N(CCc3cccc(F)c3)C2)no1 (stereo not given) | – | inactive: 8.58%
53 | CCN(Cc1ccccc1)S(=O)(=O)c1ccc(C(=O)N(CCCN(C)C)c2nc3cc4c(cc3s2)OCCO4)cc1 | inconclusive: 18.5 µM [inhibitor, partial curve, poor fit] | –
54 | CCCCOc1ccc(C(O)(CC)CCN2CCOCC2)cc1 (stereo not given) | – | inactive: 67.8%
55 | Cn1c(=O)cc(OCC(=O)N2CCC(N3CCCCC3)CC2)c2ccccc21 | inconclusive: 18.5 µM [inhibitor, single point] | –
56 | Cc1ccc(Nc2nc(N)nc(CN3CCN(c4ccccc4F)CC3)n2)cc1 | active: 6.57 µM | –
57 | CC(=O)Nc1sc(/C(C#N)=C\c2cccc(Cl)c2)nc1-c1ccc(C)cc1 | inconclusive: 18.5 µM [inhibitor, single point] | –
58 | NS(=O)(=O)c1ccc(CCNC(=O)c2ccc(S(=O)(=O)N3CCCCC3)cc2)cc1 | inconclusive: 10.4 µM [inhibitor, partial curve, poor fit] | –
59 | Cc1ccc(C(=O)n2c(N)nc3ccccc32)cc1 | – | inactive: 52.4%
60 | OCCCNc1c2c(nc3cc(-c4ccc(Cl)cc4)nn13)CCC2 | inconclusive: 9.28 µM [inhibitor, partial curve, poor fit] | –
61 | CC(=O)N1c2ccc(S(=O)(=O)N3CCC(C(=O)NC4CCCC(C)C4C)CC3)cc2CC1C (stereo not given) | inconclusive: 2.94 µM [inhibitor, partial curve, poor fit] | –
62 | O=C(Nc1ccc(S(=O)(=O)N2CCOCC2)cc1)c1cc(-c2ccccc2O)n[nH]1 | inconclusive: 3.29 µM [inhibitor, full curve] | –
63 | CC(=O)c1ccc(S(=O)(=O)Nc2cccc(-c3ccc(N4CCOCC4)nn3)c2)cc1 | inconclusive: 11.7 µM [inhibitor, single point] | –
64 | CCN(CC)c1ccc(NC(=O)C(C)C)cc1 | – | inactive: 118%
65 | O=S1(=O)CCN2C(c3ccc4c(c3)CCCC4)=CSC2=N1 | inconclusive: 0.928 µM [inhibitor, full curve, poor fit] | –
66 | CC(C)NC(=O)c1ccc(CN2CCC(Cc3ccccc3)CC2)cc1 | inconclusive: 14.7 µM [inhibitor, partial curve, poor fit] | –
67 | Cc1ccc(-c2cc(C(=O)NCc3cnn(C)c3C)c3cc(Br)ccc3n2)cc1 | inconclusive: 18.5 µM [inhibitor, single point] | –
68 | CC1(C)S[C@@H]2[C@H](N)C(=O)N2C1C(=O)O (stereo not given in full) | inconclusive: 0.51 µM [inhibitor, partial curve, poor fit] | –
69 | Cc1ccc2cc(/C=N/NC(=O)[C@@H]3CCCN3)c(Cl)nc2c1 | – | inactive: 20.5%
70 | COc1ccccc1N(Cc1ccccc1)S(=O)(=O)c1cccc(C(=O)Nc2ncccc2C)c1 | inconclusive: 9.28 µM [inhibitor, single point] | –

From no. 50 up to 66, as listed above:
Row | Compound | Potency | activity change, negative = inhibition
50 | O=C(Cn1c(=O)c2c(ncn2Cc2ccccc2)n(Cc2ccccc2)c1=O)NC1CC1 | inconclusive: 13.1 µM [inhibitor, partial curve, poor fit] | –
51 | CC1CCN(C(=O)Cn2nnc(-c3ccccc3)n2)CC1 | inconclusive: 20.8 µM [inhibitor, single point] | –
52 | CCc1nc(CN(C)C(=O)C2CCC(=O)N(CCc3cccc(F)c3)C2)no1 (stereo not given) | – | inactive: 8.58%
53 | CCN(Cc1ccccc1)S(=O)(=O)c1ccc(C(=O)N(CCCN(C)C)c2nc3cc4c(cc3s2)OCCO4)cc1 | inconclusive: 18.5 µM [inhibitor, partial curve, poor fit] | –
54 | CCCCOc1ccc(C(O)(CC)CCN2CCOCC2)cc1 (stereo not given) | – | inactive: 67.8%
55 | Cn1c(=O)cc(OCC(=O)N2CCC(N3CCCCC3)CC2)c2ccccc21 | inconclusive: 18.5 µM [inhibitor, single point] | –
56 | Cc1ccc(Nc2nc(N)nc(CN3CCN(c4ccccc4F)CC3)n2)cc1 | active: 6.57 µM | –
57 | CC(=O)Nc1sc(/C(C#N)=C\c2cccc(Cl)c2)nc1-c1ccc(C)cc1 | inconclusive: 18.5 µM [inhibitor, single point] | –
58 | NS(=O)(=O)c1ccc(CCNC(=O)c2ccc(S(=O)(=O)N3CCCCC3)cc2)cc1 | inconclusive: 10.4 µM [inhibitor, partial curve, poor fit] | –
59 | Cc1ccc(C(=O)n2c(N)nc3ccccc32)cc1 | – | inactive: 52.4%
60 | OCCCNc1c2c(nc3cc(-c4ccc(Cl)cc4)nn13)CCC2 | inconclusive: 9.28 µM [inhibitor, partial curve, poor fit] | –
61 | CC(=O)N1c2ccc(S(=O)(=O)N3CCC(C(=O)NC4CCCC(C)C4C)CC3)cc2CC1C (stereo not given) | inconclusive: 2.94 µM [inhibitor, partial curve, poor fit] | –
62 | O=C(Nc1ccc(S(=O)(=O)N2CCOCC2)cc1)c1cc(-c2ccccc2O)n[nH]1 | inconclusive: 3.29 µM [inhibitor, full curve] | –
63 | CC(=O)c1ccc(S(=O)(=O)Nc2cccc(-c3ccc(N4CCOCC4)nn3)c2)cc1 | inconclusive: 11.7 µM [inhibitor, single point] | –
64 | CCN(CC)c1ccc(NC(=O)C(C)C)cc1 | – | inactive: 118%
65 | O=S1(=O)CCN2C(c3ccc4c(c3)CCCC4)=CSC2=N1 | inconclusive: 0.928 µM [inhibitor, full curve, poor fit] | –
66 | CC(C)NC(=O)c1ccc(CN2CCC(Cc3ccccc3)CC2)cc1 | inconclusive: 14.7 µM [inhibitor, partial curve, poor fit] | –
